Results on 2 molecules are retold here after paper PMC9310568.

The target of this test is FIGNL1 (full-length, yeast two-hybrid fusion) (rice (Oryza sativa)). In words: two-hybrid; pairwise test of constructs in pGADT7 and pGBKT7 in yeast strain Y2H Gold; growth on DDO and QDO/X/A plates.

No constants are given. Whether binding was seen depends on the method and setting. Binding can be weak; no strength is given. Sequences can lack the tags named with a protein.

B1: DMC1A (yeast two-hybrid fusion) (protein, UniProt Q7GBF8 1-344)
chain: MAPSKQYSEGGQLQLMDAERIEEEEECFESIDKLISQGINSGDVKKLQDAGIYTCNGLMMHTKKSLTGIKGLSEAKVDKICEAAEKLLSQGFITGSDLLIKRKSVVRITTGSQALDKLLGGGIETLCITEAFGEFRSGKTQLAHTLCVSAQLPIHMHGGNGKVAYIDTEGTFRPERIVPIAERFGMDANAVLDNIIYARAYTYEHQYNLLLGLAAKMAEEPFRLLIVDSVIALFRVDFSGRGELAERQQKLAQMLSRLTKIAEEFNVAVYITNQVIADPGGGMFITDLKKPAGGHVLAHAATIRLMLRKGKGEQRVCKIFDAPNLPEGEAVFQVTSGGIMDAKD
As to B1, the binding result is on record as “binds”.

B2: DMC1B (yeast two-hybrid fusion) (protein, UniProt Q7GBF7 1-344)
chain: MAPSKQYDEGGQLQLMDAERIEEEEECFESIDKLISQGINSGDVKKLQDAGIYTCNGLMMHTKKSLTGIKGLSEAKVDKICEAAEKLLSQGFMTGSDLLIKRKSVVRITTGSQALDELLGGGIETLCITEAFGEFRSGKTQLAHTLCVSTQLPIHMHGGNGKVAYIDTEGTFRPERIVPIAERFGMDANAVLDNIIYARAYTYEHQYNLLLGLAAKMAEEPFRLLIVDSVIALFRVDFSGRGELAERQQKLAQMLSRLTKIAEEFNVAVYITNQVIADPGGGMFITDPKKPAGGHVLAHAATIRLMLRKGKGEQRVCKIFDAPNLPEGEAVFQVTSGGIMDAKD
B2: the binding result is given as “binds”.
